Measurements reported in the supplement of paper PMC11732987, “Enantioselective OTUD7B fragment discovery through chemoproteomics screening and high-throughput optimisation” (Communications Chemistry, 2025).
The other results are listed elsewhere or left out. The data scatter; read single values as rough.

Assays:
[1] = compound: ClCC(=O)N[C@@H]1CCCc2ccccc12; experiment: log2 mean competition ratio of IA-DTB cysteine labelling (DMSO/compound) (log2 ratio); higher = stronger cysteine engagement by compound; conditions: treatment time: 4 h, cell line lysate: HEK293T
Procedure: (§1)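 IA-DTB competitive cysteine chemoproteomics in HEK293T RIPA lysate. Lysates were treated with compound 29 or 30 at 50 or 200 µM for 4 h, then IA-DTB (500 µM, 1 h), trypsin-digested, NeutrAvidin-enriched and analysed by diaPASEF. Competition ratio = intensity DMSO / intensity compound (n=4 treated, n=64 DMSO); binding: mean log2 CR ≥ 1 and p ≤ 0.05 plus QC filters. Target is the cysteine site.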

[2] = compound: ClCC(=O)N[C@H]1CCCc2ccccc12; experiment: as above; conditions: treatment time: 4 h, cell line lysate: HEK293T
Procedure: as §1

COLGALT1 C369 (UniProt Q8NBJ5)
log2 mean competition ratio ([1]; 50 µM): -0.184 | log2 mean competition ratio ([1]; 200 µM): 0.189 | log2 mean competition ratio ([2]; 50 µM): -0.282 | log2 mean competition ratio ([2]; 200 µM): 0.153

CLTCL1 C934 (UniProt P53675)
log2 mean competition ratio ([1]; 50 µM): 0.00312 | log2 mean competition ratio ([1]; 200 µM): 0.0689 | log2 mean competition ratio ([2]; 50 µM): -0.451 | log2 mean competition ratio ([2]; 200 µM): 0.122

COG4 C589 (UniProt Q9H9E3)
log2 mean competition ratio ([1]; 50 µM): -0.00394 | log2 mean competition ratio ([1]; 200 µM): -0.0527 | log2 mean competition ratio ([2]; 50 µM): -0.374 | log2 mean competition ratio ([2]; 200 µM): -0.16

CLTC C870 (UniProt Q00610)
log2 mean competition ratio ([1]; 50 µM): 0.117 | log2 mean competition ratio ([1]; 200 µM): -0.262 | log2 mean competition ratio ([2]; 50 µM): 0.101 | log2 mean competition ratio ([2]; 200 µM): -0.238

COG3 C363 (UniProt Q96JB2)
log2 mean competition ratio ([1]; 50 µM): -0.0487 | log2 mean competition ratio ([1]; 200 µM): -0.245 | log2 mean competition ratio ([2]; 50 µM): 0.711 | log2 mean competition ratio ([2]; 200 µM): -0.273

CNST C408 (UniProt Q6PJW8)
log2 mean competition ratio ([1]; 50 µM): -0.256 | log2 mean competition ratio ([1]; 200 µM): 0.316 | log2 mean competition ratio ([2]; 50 µM): -0.495 | log2 mean competition ratio ([2]; 200 µM): 0.061

CIP2A C615 (UniProt Q8TCG1)
log2 mean competition ratio ([1]; 50 µM): -0.0763 | log2 mean competition ratio ([1]; 200 µM): 0.11 | log2 mean competition ratio ([2]; 50 µM): 0.0281 | log2 mean competition ratio ([2]; 200 µM): 0.191

CIP2A C472 (UniProt Q8TCG1)
log2 mean competition ratio ([1]; 50 µM): 0.132 | log2 mean competition ratio ([1]; 200 µM): 0.0657 | log2 mean competition ratio ([2]; 50 µM): 0.207 | log2 mean competition ratio ([2]; 200 µM): 0.0803

COQ8A C641 (UniProt Q8NI60)
log2 mean competition ratio ([1]; 50 µM): 0.239 | log2 mean competition ratio ([1]; 200 µM): 0.185 | log2 mean competition ratio ([2]; 50 µM): 0.539 | log2 mean competition ratio ([2]; 200 µM): 0.178

CHST11 C128 (UniProt Q9NPF2)
log2 mean competition ratio ([1]; 50 µM): 0.404 | log2 mean competition ratio ([1]; 200 µM): 0.679 | log2 mean competition ratio ([2]; 50 µM): 0.259 | log2 mean competition ratio ([2]; 200 µM): 0.349

CHML C487 (UniProt P26374)
log2 mean competition ratio ([1]; 50 µM): -0.349 | log2 mean competition ratio ([1]; 200 µM): -0.0156 | log2 mean competition ratio ([2]; 50 µM): 0.123 | log2 mean competition ratio ([2]; 200 µM): -0.221

CNOT10 C327 (UniProt Q9H9A5)
log2 mean competition ratio ([1]; 50 µM): -0.219 | log2 mean competition ratio ([1]; 200 µM): -0.376 | log2 mean competition ratio ([2]; 50 µM): 0.0415 | log2 mean competition ratio ([2]; 200 µM): -0.277

CHD8 C1913 (UniProt Q9HCK8)
log2 mean competition ratio ([1]; 50 µM): 0.0407 | log2 mean competition ratio ([1]; 200 µM): -0.0399 | log2 mean competition ratio ([2]; 50 µM): -0.357 | log2 mean competition ratio ([2]; 200 µM): -0.0675

COPG2 C723 (UniProt Q9UBF2)
log2 mean competition ratio ([1]; 50 µM): -0.574 | log2 mean competition ratio ([1]; 200 µM): -0.00198 | log2 mean competition ratio ([2]; 50 µM): -0.511 | log2 mean competition ratio ([2]; 200 µM): 0.12

CPSF3 C223 (UniProt Q9UKF6)
log2 mean competition ratio ([1]; 50 µM): 0.0967 | log2 mean competition ratio ([1]; 200 µM): 0.0401 | log2 mean competition ratio ([2]; 50 µM): -0.789 | log2 mean competition ratio ([2]; 200 µM): -0.0642

CPSF1 C1020 (UniProt Q10570)
log2 mean competition ratio ([1]; 50 µM): 0.499 | log2 mean competition ratio ([1]; 200 µM): -0.303 | log2 mean competition ratio ([2]; 50 µM): 0.245 | log2 mean competition ratio ([2]; 200 µM): -0.602

CIC C336
log2 mean competition ratio ([1]; 50 µM): -0.0383 | log2 mean competition ratio ([1]; 200 µM): -0.239 | log2 mean competition ratio ([2]; 50 µM): -0.0869 | log2 mean competition ratio ([2]; 200 µM): -0.208

CLTCL1 C824 (UniProt P53675)
log2 mean competition ratio ([1]; 50 µM): -0.22 | log2 mean competition ratio ([1]; 200 µM): 0.0787 | log2 mean competition ratio ([2]; 50 µM): -0.105 | log2 mean competition ratio ([2]; 200 µM): 0.536

CIAO1 C52 (UniProt O76071)
log2 mean competition ratio ([1]; 50 µM): -0.153 | log2 mean competition ratio ([1]; 200 µM): -0.146 | log2 mean competition ratio ([2]; 50 µM): -0.0233 | log2 mean competition ratio ([2]; 200 µM): -0.0423

COPB1 C284 (UniProt P53618)
log2 mean competition ratio ([1]; 50 µM): -0.0984 | log2 mean competition ratio ([1]; 200 µM): -0.229 | log2 mean competition ratio ([2]; 50 µM): -0.261 | log2 mean competition ratio ([2]; 200 µM): -0.393

CHUK C371 (UniProt O15111)
log2 mean competition ratio ([1]; 50 µM): 0.086 | log2 mean competition ratio ([1]; 200 µM): 0.367 | log2 mean competition ratio ([2]; 50 µM): 0.113 | log2 mean competition ratio ([2]; 200 µM): 0.292

COPG1 C169 (UniProt Q9Y678)
log2 mean competition ratio ([1]; 50 µM): 0.0793 | log2 mean competition ratio ([1]; 200 µM): -0.262 | log2 mean competition ratio ([2]; 50 µM): 0.382 | log2 mean competition ratio ([2]; 200 µM): -0.148

COPS3 C383 (UniProt Q9UNS2)
log2 mean competition ratio ([1]; 50 µM): -0.13 | log2 mean competition ratio ([1]; 200 µM): 0.116 | log2 mean competition ratio ([2]; 50 µM): -0.24 | log2 mean competition ratio ([2]; 200 µM): 0.229

COPA C254 (UniProt P53621)
log2 mean competition ratio ([1]; 50 µM): 0.366 | log2 mean competition ratio ([1]; 200 µM): -0.149 | log2 mean competition ratio ([2]; 50 µM): 0.0853 | log2 mean competition ratio ([2]; 200 µM): -0.328

COBLL1 C610 (UniProt Q53SF7)
log2 mean competition ratio ([1]; 50 µM): -0.119 | log2 mean competition ratio ([1]; 200 µM): -0.383 | log2 mean competition ratio ([2]; 50 µM): 0.221 | log2 mean competition ratio ([2]; 200 µM): -0.373

CRACD C860
log2 mean competition ratio ([1]; 50 µM): 0.168 | log2 mean competition ratio ([1]; 200 µM): -0.0882 | log2 mean competition ratio ([2]; 50 µM): -0.244 | log2 mean competition ratio ([2]; 200 µM): 0.182

CMAS C364 (UniProt Q8NFW8)
log2 mean competition ratio ([1]; 50 µM): 0.177 | log2 mean competition ratio ([1]; 200 µM): 0.0332 | log2 mean competition ratio ([2]; 50 µM): -0.104 | log2 mean competition ratio ([2]; 200 µM): 0.0716

COG7 C475 (UniProt P83436)
log2 mean competition ratio ([1]; 50 µM): 0.0616 | log2 mean competition ratio ([1]; 200 µM): -0.00996 | log2 mean competition ratio ([2]; 50 µM): -0.263 | log2 mean competition ratio ([2]; 200 µM): -0.0618

CHEK2 C284 (UniProt O96017)
log2 mean competition ratio ([1]; 50 µM): -0.0266 | log2 mean competition ratio ([1]; 200 µM): -0.242 | log2 mean competition ratio ([2]; 50 µM): -0.0294 | log2 mean competition ratio ([2]; 200 µM): -0.311

CHTF18 C373 (UniProt Q8WVB6)
log2 mean competition ratio ([1]; 50 µM): -0.0221 | log2 mean competition ratio ([1]; 200 µM): -0.0578 | log2 mean competition ratio ([2]; 50 µM): -0.383 | log2 mean competition ratio ([2]; 200 µM): -0.0954

COG4 C25 (UniProt Q9H9E3)
log2 mean competition ratio ([1]; 50 µM): -0.0226 | log2 mean competition ratio ([1]; 200 µM): 0.268 | log2 mean competition ratio ([2]; 50 µM): -0.354 | log2 mean competition ratio ([2]; 200 µM): 0.183

CLSTN3 C66 (UniProt Q9BQT9)
log2 mean competition ratio ([1]; 50 µM): -0.114 | log2 mean competition ratio ([1]; 200 µM): 0.00261 | log2 mean competition ratio ([2]; 50 µM): -0.27 | log2 mean competition ratio ([2]; 200 µM): -0.0208

CLEC16A C657 (UniProt Q2KHT3)
log2 mean competition ratio ([1]; 50 µM): -0.0858 | log2 mean competition ratio ([1]; 200 µM): 0.534 | log2 mean competition ratio ([2]; 50 µM): -0.289 | log2 mean competition ratio ([2]; 200 µM): -0.0397

COPG1 C44 (UniProt Q9Y678)
log2 mean competition ratio ([1]; 50 µM): 0.421 | log2 mean competition ratio ([1]; 200 µM): -0.322 | log2 mean competition ratio ([2]; 50 µM): 0.512 | log2 mean competition ratio ([2]; 200 µM): -0.41

COTL1 C10 (UniProt Q14019)
log2 mean competition ratio ([1]; 50 µM): -0.103 | log2 mean competition ratio ([1]; 200 µM): -0.0592 | log2 mean competition ratio ([2]; 50 µM): -0.0302 | log2 mean competition ratio ([2]; 200 µM): -0.0326

CKAP5 C493 (UniProt Q14008)
log2 mean competition ratio ([1]; 50 µM): 0.152 | log2 mean competition ratio ([1]; 200 µM): -0.254 | log2 mean competition ratio ([2]; 50 µM): 0.189 | log2 mean competition ratio ([2]; 200 µM): -0.249

COMMD8 C32 (UniProt Q9NX08)
log2 mean competition ratio ([1]; 50 µM): -0.13 | log2 mean competition ratio ([1]; 200 µM): -0.0626 | log2 mean competition ratio ([2]; 50 µM): -0.013 | log2 mean competition ratio ([2]; 200 µM): -0.109

CLTCL1 C459 (UniProt P53675)
log2 mean competition ratio ([1]; 50 µM): 0.156 | log2 mean competition ratio ([1]; 200 µM): 0.215 | log2 mean competition ratio ([2]; 50 µM): 0.0585 | log2 mean competition ratio ([2]; 200 µM): -0.0394

COQ3 C155 (UniProt Q9NZJ6)
log2 mean competition ratio ([1]; 50 µM): -0.167 | log2 mean competition ratio ([1]; 200 µM): 0.576 | log2 mean competition ratio ([2]; 50 µM): -0.338 | log2 mean competition ratio ([2]; 200 µM): 0.299

CIAO1 C97 (UniProt O76071)
log2 mean competition ratio ([1]; 50 µM): -0.41 | log2 mean competition ratio ([1]; 200 µM): -0.327 | log2 mean competition ratio ([2]; 50 µM): -0.183 | log2 mean competition ratio ([2]; 200 µM): -0.435

COG3 C697 (UniProt Q96JB2)
log2 mean competition ratio ([1]; 50 µM): -0.0283 | log2 mean competition ratio ([1]; 200 µM): -0.237 | log2 mean competition ratio ([2]; 50 µM): -0.137 | log2 mean competition ratio ([2]; 200 µM): -0.249

COPS5 C218 (UniProt Q92905)
log2 mean competition ratio ([1]; 50 µM): -0.107 | log2 mean competition ratio ([1]; 200 µM): -0.076 | log2 mean competition ratio ([2]; 50 µM): -0.123 | log2 mean competition ratio ([2]; 200 µM): -0.105

COPS3 C25 (UniProt Q9UNS2)
log2 mean competition ratio ([1]; 50 µM): 0.243 | log2 mean competition ratio ([1]; 200 µM): 0.599 | log2 mean competition ratio ([2]; 50 µM): 0.175 | log2 mean competition ratio ([2]; 200 µM): 0.176

COPB1 C623 (UniProt P53618)
log2 mean competition ratio ([1]; 50 µM): -0.178 | log2 mean competition ratio ([1]; 200 µM): -0.255 | log2 mean competition ratio ([2]; 50 µM): 0.0839 | log2 mean competition ratio ([2]; 200 µM): 0.103
